The values that follow come from ChEMBL document CHEMBL5584273, “Investigation of Isobactin Analogues of Teixobactin” (ACS Med Chem Lett, 2024).

The assay has as its system Escherichia coli. The assay can be described thus: Antibiotic activity against Escherichia coli ATCC 10798 assessed as inhibition of bacterial growth incubated for 16 hrs in presence of 0.002% polysorbate 80. It is filed as functional. The method, boiled down:
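Broth microdilution in media containing 0.002% polysorbate 80. Overnight cultures were grown at 37 °C with shaking in Mueller-Hinton broth. Inoculum was set from background-corrected OD600 to about 5 × 10^5 CFU/mL final. 2-fold dilutions gave final 8 to 0.0078 μg/mL from a DMSO stock. Plates were incubated 16 h at 37 °C and OD600 was read. MIC is the lowest concentration with no growth. Run in quadruplicate technical replicates.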

As usually defined, the MIC is the lowest concentration found to suppress growth. As for `CN[C@H](CC(C)C)C(=O)N[C@H]1C(=O)N[C@@H](CC(N)=O)C(=O)N[C@H]2C(=O)N[C@H]3C(=O)N[C@H](C(=O)N[C@H](C(=O)O)c4cc(O)cc(O)c4-c4cc3ccc4O)[C@H](O)c3ccc(c(Cl)c3)Oc3cc2cc(c3O[C@@H]2O[C@H](CO)[C@@H](O)[C@H](O)[C@H]2O[C@H]2C[C@](C)(N)[C@H](O)[C@H](C)O2)Oc2ccc(cc2Cl)[C@H]1O` [VANCOMYCIN], the MIC was > 8 µg/mL.
